Test [1] addresses recombinant monkey GRP94 (monkey). Kind of test: ELISA on coated antigen, single IgG concentration not given. On the technique in general: ELISA stands for enzyme-linked immunosorbent assay.
Test [2] has the same target. Kind of test: ELISA, antigen coated on plate.

No constants are given. Whether binding was seen depends on the method and setting. Binding can be weak; no strength is given.

B1: anti-GRP94 human IgG antibody B5 (antibody, V domains shown)
VH: EVQLLESGGGLVQPGGSLRLSCAASGFTFSNYYMSWVRQAPGKGLEWVSGIYPNSGSTYYADSVKGRFTISRDNSKNTLYLQMNSLRAEDTAVYYCARDPLHPARFPFDYWGQGTLVTVSS
VL: QSVLTQPPSASGTPGQRVTISCTGSSSNIGNNAVSWYQQLPGTAPKLLIYADSHRPSGVPDRFSGSKSGTSASLAISGLRSEDEADYYCGAWDASLNAYVFGGGTKLTVL
With B1, the binding result in test [1] and in test [2] was “binds” throughout.

B2: anti-GRP94 human IgG antibody E5 (antibody, V domains shown)
VH: EVQLLESGGGLVQPGGSLRLSCAASGFTFSNYAMSWVRQAPGKGLEWVSGISSSSGSTYYADSVKGRFTTSRDNSKNTLYLQMNSLRAEDTAVYYCARDRHPFSPNWFDYWGQGTLVTVSS
VL: QSVLTQPPSASGTPGQRVTISCSGSPSNIGSNTVTWYQQLPGTAPKLLIYADSHRPSGVPDRFSGSKSGTSASLAISGLRSEDEADYYCASWDDSLNGYVFGGGTKLTVL
Turning to B2, the binding entry in test [1] and in test [2] was “binds” in each case.

B3: anti-GRP94 human IgG antibody 3G7 (antibody, V domains shown)
VH: EVQLLESGGGLVQPGGSLRLSCAASGFTFSNYSMSWVRQAPGKGLEWVSGIYYGSGNKYYADSVKGRFTISRDNSKNTLYLQMNSLRAEDTAVYYCAKNLASFDYWGQGTLVTVSS
VL: QSVLTQPPSASGTPGQRVTISCSGSSSNIGSNSVNWYQQLPGTAPKLLIYSNSHRPSGVPDRFSGSKSGTSASLAISGLRSEDEADYYCGTWDSSLSGYVFGGGTKLTVL
Turning to B3, the binding result in test [1] and in test [2] was “binds” in each case.

The record behind these values is US20230220056A1.
